Source: PubChem BioAssay AID330 (DTP/NCI, 2004)
The list is a part of this screen's results and no random one: it covers a few groups of compounds. Not every dose and run of a compound is shown. T/C: endpoint of the treated group in % of that of the vehicle group. Some entries give survivors of the animals treated and no T/C: the source holds a T/C of zero for them, seemingly a mark for toxic or unscored doses. Some doses without a T/C left all or most animals alive at the check, yet need not have been tolerated: survival well below the control is almost never listed, so the zero probably covers shortened survival too. Counts of survivors are from the toxicity check (mostly the fifth day) where no day follows; animals may have died later. Schedule codes are those of the source, read here as Q, the interval in days (D) or hours (H), X, the number of doses. For survival time, this PubChem deposit counts one and a half times the control or more as active, and values a quarter to a half above the control carry no call in these data; other NCI protocols may use other cut-offs. Some T/C values are followed by the survivors on the day toxicity was checked, most often the fifth; without a count or a note in brackets, all were alive then. Some entries hold several experiments; the values are given in rising order. Some T/C values are marked as having no survivor count here; that says nothing about deaths at the dose. Some metal complexes and salts are drawn in pieces, as in the source, so charges may not balance.

System: P388 leukemia ip, CD2F1 mice, survival T/C
Assay: NCI In Vivo Anticancer Drug Screen. Data for tumor model P388 Leukemia (intraperitoneal) in CD2F1 (CDF1) mice
Conditions: T/C endpoint: median survival time, higher T/C = longer survival
[1] = dose: 50.0 mg/kg/injection, schedule: Q01DX009 (ip), vehicle: saline with Tween-80
[2] = dose: 100.0 mg/kg/injection, schedule: Q01DX009 (ip), vehicle: saline with Tween-80
[3] = dose: 50.0 mg/kg/injection, schedule: Q01DX009 (ip), vehicle: saline
[4] = dose: 100.0 mg/kg/injection, schedule: Q01DX009 (ip), vehicle: saline
[5] = dose: 200.0 mg/kg/injection, schedule: Q01DX009 (ip), vehicle: saline
[6] = dose: 400.0 mg/kg/injection, schedule: Q01DX009 (ip), vehicle: saline

Which T/C (dose: 1.56 mg/kg/injection, schedule: Q01DX009 (ip), vehicle: saline with Tween-80) does the source give for `CC(Br)CN(CC(C)Br)c1cccc(C(=O)O)c1` (stereo not drawn) here?
The T/C was 150 and 170 % of control.

And the T/C (dose: 3.12 mg/kg/injection, schedule: Q01DX009 (ip), vehicle: saline with Tween-80)?
The T/C was 148 and 158 % of control.

And the T/C (dose: 6.25 mg/kg/injection, schedule: Q01DX009 (ip), vehicle: saline with Tween-80)?
Its T/C is 90 [5 of 6 alive], 166, 169 % of control.

And the survivor count (dose: 12.5 mg/kg/injection, schedule: Q01DX009 (ip), vehicle: saline with Tween-80)?
The survivor count was 5 of 6.

What about the survivor count (dose: 25.0 mg/kg/injection, schedule: Q01DX009 (ip), vehicle: saline with Tween-80) of the same compound?
Its survivor count is 1 of 6.

What about the survivor count [1] of the same compound?
Its survivor count is 0 of 6.

What about the survivor count [2] of the same compound?
The survivor count was 0 of 6.

What about the survivor count (dose: 200.0 mg/kg/injection, schedule: Q01DX009 (ip), vehicle: saline with Tween-80) of the same compound?
Its survivor count is 0 of 6.

How did the T/C (dose: 3.12 mg/kg/injection, schedule: Q01DX005 (ip), vehicle: saline) turn out when `CC(C)OP(C)(O)=S.CC(N)c1ccccc1` (stereo not drawn) was run?
Its T/C is 98 % of control.

What about the T/C (dose: 6.25 mg/kg/injection, schedule: Q01DX005 (ip), vehicle: saline) of the same compound?
The T/C was 95 % of control.

And the T/C (dose: 12.5 mg/kg/injection, schedule: Q01DX005 (ip), vehicle: saline)?
The T/C was 100 % of control.

What about the survivor count (dose: 50.0 mg/kg/injection, schedule: Q01DX005 (ip), vehicle: saline) of the same compound?
Its survivor count is 0 of 6.

And the survivor count (dose: 100.0 mg/kg/injection, schedule: Q01DX005 (ip), vehicle: saline)?
The survivor count was 0 of 6.

And the survivor count (dose: 200.0 mg/kg/injection, schedule: Q01DX005 (ip), vehicle: saline)?
Its survivor count is 0 of 6.

Which T/C (dose: 12.5 mg/kg/injection, schedule: Q01DX009 (ip), vehicle: distilled water + Tween-80) does the source give for `CN=C(Nc1ccccc1)NP(=O)(Nc1ccccc1)Nc1ccccc1` here?
The T/C was 96 % of control.

And the T/C (dose: 25.0 mg/kg/injection, schedule: Q01DX009 (ip), vehicle: distilled water + Tween-80)?
The T/C was 96 % of control.

What about the survivor count (dose: 50.0 mg/kg/injection, schedule: Q01DX009 (ip), vehicle: distilled water + Tween-80) of the same compound?
The survivor count was 6 of 6.

And the T/C (dose: 100.0 mg/kg/injection, schedule: Q01DX009 (ip), vehicle: distilled water + Tween-80)?
Its T/C is 86 % of control [5 of 6 alive].

What about the T/C (dose: 200.0 mg/kg/injection, schedule: Q01DX009 (ip), vehicle: distilled water + Tween-80) of the same compound?
Its T/C is 86 % of control.

Which T/C (dose: 12.5 mg/kg/injection, schedule: Q01DX009 (ip), vehicle: water) does the source give for `COP(=O)(C=[N+]=[N-])OC` here?
The T/C was 108 % of control.

What about the T/C (dose: 25.0 mg/kg/injection, schedule: Q01DX009 (ip), vehicle: water) of the same compound?
The T/C was 106 % of control.

And the T/C (dose: 50.0 mg/kg/injection, schedule: Q01DX009 (ip), vehicle: water)?
The T/C was 96 % of control.

And the T/C (dose: 100.0 mg/kg/injection, schedule: Q01DX009 (ip), vehicle: water)?
The T/C was 97 % of control.

What about the T/C (dose: 200.0 mg/kg/injection, schedule: Q01DX009 (ip), vehicle: water) of the same compound?
Its T/C is 101 % of control.

For `C[As+](C)(C)CCO`, which T/C [3] is on record?
The T/C was 92 % of control.

And the T/C [4]?
The T/C was 106 % of control.

And the T/C [5]?
Its T/C is 98 % of control [5 of 6 alive].

What does the source list for `CN([PH+](F)F)[PH+](F)F.CN([PH+](F)F)[PH+](F)F.[C-]#[O+].[C-]#[O+].[C-]#[O+].[C-]#[O+].[CH-]=O.[Fe].[Fe]`?
T/C (dose: 100.0 mg/kg/injection, schedule: Q01DX001 (ip), vehicle: Klucel (hydroxypropylcellulose) (HPC)): 100 % of control; T/C (dose: 200.0 mg/kg/injection, schedule: Q01DX001 (ip), vehicle: Klucel (hydroxypropylcellulose) (HPC)): 102 % of control; T/C (dose: 400.0 mg/kg/injection, schedule: Q01DX001 (ip), vehicle: Klucel (hydroxypropylcellulose) (HPC)): 100 % of control

`COP(C)(=O)O.[Th]` was tested. Which T/C [1] did it give?
Its T/C is 87 % of control [survivor count not shown].

And the T/C [2]?
The T/C was 87 % of control [survivor count not shown].

How did the T/C (dose: 1.56 mg/kg/injection, schedule: Q01DX009 (ip), vehicle: saline) turn out when `NP(=O)(N(CCCl)CCCl)N1CC1` (stereo not drawn) was run?
The T/C was 108 % of control.

What about the T/C (dose: 3.13 mg/kg/injection, schedule: Q01DX009 (ip), vehicle: saline) of the same compound?
The T/C was 126 % of control.

What about the T/C (dose: 6.25 mg/kg/injection, schedule: Q01DX009 (ip), vehicle: saline) of the same compound?
The T/C was 138 % of control.

And the T/C (dose: 12.5 mg/kg/injection, schedule: Q01DX009 (ip), vehicle: saline)?
Its T/C is 178 % of control.

And the T/C (dose: 25.0 mg/kg/injection, schedule: Q01DX009 (ip), vehicle: saline)?
The T/C was 270 % of control.

What about the survivor count [3] of the same compound?
Its survivor count is 6 of 6.

Which results are given for `N/C(=N\P(=O)(O)O)Nc1ccccc1`?
T/C (dose: 100.0 mg/kg/injection, schedule: Q04DX003 (ip), vehicle: saline): 89 % of control; T/C (dose: 200.0 mg/kg/injection, schedule: Q04DX003 (ip), vehicle: saline): 102 % of control; survivor count (dose: 400.0 mg/kg/injection, schedule: Q04DX003 (ip), vehicle: saline): 3 of 6

What does the source list for `O=[N+]([O-])c1cc([N+](=O)[O-])c(C=Cc2c([N+](=O)[O-])cc([N+](=O)[O-])c(O)c2[N+](=O)[O-])c([N+](=O)[O-])c1`?
survivor count [4]: 2 of 6; survivor count [5]: 0 of 6; survivor count [6]: 0 of 6

With `O=C(OCC(F)([N+](=O)[O-])[N+](=O)[O-])OCC(F)([N+](=O)[O-])[N+](=O)[O-]` as the compound, how does the T/C [4] read?
The T/C was 108 % of control.

What about the T/C [5] of the same compound?
Its T/C is 117 % of control.

And the T/C [6]?
The T/C was 117 % of control.

With `C1CN1.O=C(O)CCSCNc1ncnc2c1ncn2C1OC2COP(=O)(O)OC2C1O` (stereo not drawn) as the compound, how does the T/C (dose: 5.0 mg/kg/injection, schedule: Q04DX002 (ip), vehicle: saline) read?
The T/C was 118 % of control.

And the T/C (dose: 10.0 mg/kg/injection, schedule: Q04DX002 (ip), vehicle: saline)?
Its T/C is 112 % of control [5 of 6 alive].

And the T/C (dose: 20.0 mg/kg/injection, schedule: Q04DX002 (ip), vehicle: saline)?
The T/C was 112 % of control.

What about the survivor count (dose: 100.0 mg/kg/injection, schedule: Q04DX002 (ip), vehicle: saline) of the same compound?
The survivor count was 0 of 6.

And the survivor count (dose: 200.0 mg/kg/injection, schedule: Q04DX002 (ip), vehicle: saline)?
The survivor count was 1 of 6.

What about the survivor count (dose: 400.0 mg/kg/injection, schedule: Q04DX002 (ip), vehicle: saline) of the same compound?
Its survivor count is 0 of 6.

Which T/C (dose: 12.5 mg/kg/injection, schedule: Q01DX001 (ip), vehicle: saline with Tween-80) does the source give for `O=C(O)C1COP(=O)(N(CCCl)CCCl)N1` (stereo not drawn) here?
Its T/C is 99 % of control.

And the T/C (dose: 25.0 mg/kg/injection, schedule: Q01DX001 (ip), vehicle: saline with Tween-80)?
The T/C was 100 % of control.

And the T/C (dose: 50.0 mg/kg/injection, schedule: Q01DX001 (ip), vehicle: saline with Tween-80)?
Its T/C is 101 % of control.

What about the T/C (dose: 100.0 mg/kg/injection, schedule: Q01DX001 (ip), vehicle: saline with Tween-80) of the same compound?
Its T/C is 105 % of control.

What does the source list for `O=[N+]([O-])c1cccc2no[n+]([O-])c12`?
T/C (dose: 50.0 mg/kg/injection, schedule: Q01DX005 (ip), vehicle: saline with Tween-80): 100 % of control; T/C (dose: 100.0 mg/kg/injection, schedule: Q01DX005 (ip), vehicle: saline with Tween-80): 93 % of control [4 of 6 alive]; survivor count (dose: 200.0 mg/kg/injection, schedule: Q01DX005 (ip), vehicle: saline with Tween-80): 3 of 6

With `O=P1(Nc2ncccn2)OC(CCl)=NC1c1ccc(C2N=C(CCl)OP2(=O)Nc2ncccn2)cc1` (stereo not drawn) as the compound, how does the T/C (dose: 60.0 mg/kg/injection, schedule: Q01DX005 (ip), vehicle: saline with Tween-80) read?
Its T/C is 104 % of control.

And the T/C (dose: 120.0 mg/kg/injection, schedule: Q01DX005 (ip), vehicle: saline with Tween-80)?
The T/C was 92 % of control.

What about the T/C (dose: 240.0 mg/kg/injection, schedule: Q01DX005 (ip), vehicle: saline with Tween-80) of the same compound?
The T/C was 92 % of control.
